The list shows a part of the results.
What was measured:
Assay in all cases: glycan array binding signal (z-score within array); higher = stronger binding
Details in all cases: glycan notation: IUPAC condensed, linker removed
[1] = molecular target: Neu5Ac(a2-6)Gal(b1-4)GlcNAc(b1-2)Man(a1-6)[Gal(b1-4)GlcNAc(b1-2)Man(a1-3)]Man(b1-4)GlcNAc(b1-4)GlcNAc
How it was run: (§1)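 Negative Z-scores can be read as non-binding. The Z-score is calculated within each array and then averaged across arrays of one protein sequence at different concentrations or buffers and across linkers. Arrays, 3228 in all, were curated from the Consortium for Functional Glycomics database and kept only where the protein sequence was available.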

[2] = molecular target: Neu5Ac(a2-6)Gal(b1-4)GlcNAc(b1-2)Man(a1-6)[GlcNAc(b1-2)Man(a1-3)]Man(b1-4)GlcNAc(b1-4)GlcNAc
How it was run: as §1

[3] = molecular target: Neu5Ac(a2-6)Gal(b1-4)GlcNAc(b1-2)Man(a1-6)[Man(a1-3)]Man(b1-4)GlcNAc(b1-4)GlcNAc
How it was run: as §1

[4] = molecular target: Neu5Ac(a2-6)Gal(b1-4)GlcNAc(b1-2)[Neu5Ac(a2-6)Gal(b1-4)GlcNAc(b1-4)]Man(a1-3)[GlcNAc(b1-4)][Neu5Ac(a2-6)Gal(b1-4)GlcNAc(b1-2)[Neu5Ac(a2-6)Gal(b1-4)GlcNAc(b1-6)]Man(a1-6)]Man(b1-4)GlcNAc(b1-4)GlcNAc
How it was run: as §1

[5] = molecular target: Neu5Ac(a2-6)Gal(b1-4)GlcNAc(b1-2)[Neu5Ac(a2-6)Gal(b1-4)GlcNAc(b1-4)]Man(a1-3)[GlcNAc(b1-4)][Neu5Ac(a2-6)Gal(b1-4)GlcNAc(b1-4)Man(a1-6)]Man(b1-4)GlcNAc(b1-4)GlcNAc
How it was run: as §1

[6] = molecular target: Neu5Ac(a2-6)Gal(b1-4)GlcNAc(b1-2)[Neu5Ac(a2-6)Gal(b1-4)GlcNAc(b1-6)]Man(a1-6)[Neu5Ac(a2-6)Gal(b1-4)GlcNAc(b1-2)Man(a1-3)][GlcNAc(b1-4)]Man(b1-4)GlcNAc(b1-4)GlcNAc
How it was run: as §1

[7] = molecular target: Neu5Ac(a2-6)Gal(b1-4)GlcNAc(b1-3)Gal(b1-3)GlcNAc
How it was run: as §1

[8] = molecular target: Neu5Ac(a2-6)Gal(b1-4)GlcNAc(b1-3)Gal(b1-4)GlcNAc
How it was run: as §1

[9] = molecular target: Neu5Ac(a2-6)Gal(b1-4)GlcNAc(b1-3)Gal(b1-4)GlcNAc(b1-2)Man(a1-3)[Neu5Ac(a2-6)Gal(b1-4)GlcNAc(b1-3)Gal(b1-4)GlcNAc(b1-2)Man(a1-6)]GalNAc
How it was run: as §1

[10] = molecular target: Neu5Ac(a2-6)Gal(b1-4)GlcNAc(b1-3)Gal(b1-4)GlcNAc(b1-3)Gal(b1-4)GlcNAc
How it was run: as §1

[11] = molecular target: Neu5Ac(a2-6)Gal(b1-4)GlcNAc(b1-3)Gal(b1-4)GlcNAc(b1-3)Gal(b1-4)GlcNAc(b1-2)Man(a1-3)[Neu5Ac(a2-6)Gal(b1-4)GlcNAc(b1-3)Gal(b1-4)GlcNAc(b1-3)Gal(b1-4)GlcNAc(b1-2)Man(a1-6)]GalNAc
How it was run: as §1

[12] = molecular target: Neu5Ac(a2-6)Gal(b1-4)GlcNAc(b1-3)Gal(b1-4)GlcNAc(b1-3)GalNAc
How it was run: as §1

[13] = molecular target: Neu5Ac(a2-6)Gal(b1-4)GlcNAc(b1-3)Gal(b1-4)GlcNAc(b1-3)[Neu5Ac(a2-6)Gal(b1-4)GlcNAc(b1-3)Gal(b1-4)GlcNAc(b1-6)]GalNAc
How it was run: as §1

[14] = molecular target: Neu5Ac(a2-6)Gal(b1-4)GlcNAc(b1-3)Gal(b1-4)GlcNAc(b1-6)[Gal(b1-3)]GalNAc
How it was run: as §1

[15] = molecular target: Neu5Ac(a2-6)Gal(b1-4)GlcNAc(b1-3)Gal(b1-4)[Fuc(a1-3)]GlcNAc(b1-3)Gal(b1-4)[Fuc(a1-3)]GlcNAc
How it was run: as §1

[16] = molecular target: Neu5Ac(a2-6)Gal(b1-4)GlcNAc(b1-3)GalNAc
How it was run: as §1

[17] = molecular target: Neu5Ac(a2-6)Gal(b1-4)GlcNAc(b1-3)[Neu5Ac(a2-6)Gal(b1-4)GlcNAc(b1-6)]GalNAc
How it was run: as §1

[18] = molecular target: Neu5Ac(a2-6)Gal(b1-4)GlcNAc(b1-6)GalNAc
How it was run: as §1

[19] = molecular target: Neu5Ac(a2-6)Gal(b1-4)GlcNAc(b1-6)[Gal(b1-3)GlcNAc(b1-3)]Gal(b1-4)Glc
How it was run: as §1

[20] = molecular target: Neu5Ac(a2-6)Gal(b1-4)GlcNAc(b1-6)[Gal(b1-3)]GalNAc
How it was run: as §1

[21] = molecular target: Neu5Ac(a2-6)Gal(b1-4)GlcNAc6S
How it was run: as §1

Neu5Ac(a2-6)GalNAc = molecular target: Neu5Ac(a2-6)GalNAc
How it was run: as §1

[22] = molecular target: Neu5Ac(a2-6)GalNAc(b1-4)GlcNAc
How it was run: as §1

[23] = molecular target: Neu5Ac(a2-6)GalNAc(b1-4)GlcNAc6S
How it was run: as §1

[24] = molecular target: Neu5Ac(a2-6)GlcNAc(b1-4)GlcNAc
How it was run: as §1

[25] = molecular target: Neu5Ac(a2-6)GlcNAc(b1-4)GlcNAc(b1-4)GlcNAc
How it was run: as §1

Neu5Ac(a2-8)Neu5Ac = molecular target: Neu5Ac(a2-8)Neu5Ac
How it was run: as §1

[26] = molecular target: Neu5Ac(a2-8)Neu5Ac(a2-3)Gal(b1-3)GalNAc(b1-4)[Neu5Ac(a2-3)]Gal(b1-4)Glc
How it was run: as §1

[27] = molecular target: Neu5Ac(a2-8)Neu5Ac(a2-3)Gal(b1-3)GalNAc(b1-4)[Neu5Ac(a2-8)Neu5Ac(a2-3)]Gal(b1-4)Glc
How it was run: as §1

[28] = molecular target: Neu5Ac(a2-8)Neu5Ac(a2-3)Gal(b1-4)Glc
How it was run: as §1

[29] = molecular target: Neu5Ac(a2-8)Neu5Ac(a2-3)Gal(b1-4)GlcNAc
How it was run: as §1

[30] = molecular target: Neu5Ac(a2-8)Neu5Ac(a2-3)[Gal(b1-3)GalNAc(b1-4)]Gal(b1-4)Glc
How it was run: as §1

[31] = molecular target: Neu5Ac(a2-8)Neu5Ac(a2-3)[GalNAc(b1-4)]Gal(b1-4)Glc
How it was run: as §1

[32] = molecular target: Neu5Ac(a2-8)Neu5Ac(a2-8)Neu5Ac
How it was run: as §1

[33] = molecular target: Neu5Ac(a2-8)Neu5Ac(a2-8)Neu5Ac(a2-3)Gal(b1-4)Glc
How it was run: as §1

[34] = molecular target: Neu5Ac(a2-8)Neu5Ac(a2-8)Neu5Ac(a2-3)[Gal(b1-3)GalNAc(b1-4)]Gal(b1-4)Glc
How it was run: as §1

[35] = molecular target: Neu5Ac(a2-8)Neu5Ac(a2-8)Neu5Ac(a2-3)[GalNAc(b1-4)]Gal(b1-4)Glc
How it was run: as §1

[36] = molecular target: Neu5Ac(a2-8)Neu5Ac(a2-8)Neu5Ac(a2-8)Neu5Ac(a2-3)[GalNAc(b1-4)]Gal(b1-4)Glc
How it was run: as §1

[37] = molecular target: Neu5Ac(a2-8)Neu5Gc(a2-3)Gal(b1-4)GlcNAc
How it was run: as §1

[38] = molecular target: Neu5Ac(b2-6)Gal(b1-4)GlcNAc
How it was run: as §1

Neu5Ac(b2-6)GalNAc = molecular target: Neu5Ac(b2-6)GalNAc
How it was run: as §1

[39] = molecular target: Neu5Ac9Ac(a2-3)Gal(b1-3)GlcNAc
How it was run: as §1

[40] = molecular target: Neu5Ac9Ac(a2-3)Gal(b1-4)GlcNAc
How it was run: as §1

[41] = molecular target: Neu5Ac9Ac(a2-6)Gal(b1-4)GlcNAc
How it was run: as §1

[42] = molecular target: Neu5Gc(a2-3)Gal(b1-3)GlcNAc
How it was run: as §1

[43] = molecular target: Neu5Gc(a2-3)Gal(b1-3)[Fuc(a1-4)]GlcNAc
How it was run: as §1

Neu5Gc(a2-3)Gal(b1-4)Glc = molecular target: Neu5Gc(a2-3)Gal(b1-4)Glc
How it was run: as §1

[44] = molecular target: Neu5Gc(a2-3)Gal(b1-4)GlcNAc
How it was run: as §1

[45] = molecular target: Neu5Gc(a2-3)Gal(b1-4)GlcNAc(b1-3)Gal(b1-4)GlcNAc(b1-2)Man(a1-3)[Neu5Gc(a2-3)Gal(b1-4)GlcNAc(b1-3)Gal(b1-4)GlcNAc(b1-2)Man(a1-6)]Man(b1-4)GlcNAc(b1-4)GlcNAc
How it was run: as §1

[46] = molecular target: Neu5Gc(a2-3)Gal(b1-4)[Fuc(a1-3)]GlcNAc
How it was run: as §1

[47] = molecular target: Neu5Gc(a2-6)Gal(b1-4)GlcNAc
How it was run: as §1

Neu5Gc(a2-6)GalNAc = molecular target: Neu5Gc(a2-6)GalNAc
How it was run: as §1

[48] = molecular target: Neu5Gc(a2-8)Neu5Ac(a2-3)Gal(b1-4)GlcNAc
How it was run: as §1

[49] = molecular target: Neu5Gc(a2-8)Neu5Gc(a2-3)Gal(b1-4)GlcNAc
How it was run: as §1

[50] = molecular target: Neu5Gc(a2-8)Neu5Gc(a2-3)Gal(b1-4)GlcNAc(b1-3)Gal(b1-4)GlcNAc
How it was run: as §1

[51] = molecular target: Neu5Gc(a2-8)Neu5Gc(a2-6)Gal(b1-4)GlcNAc
How it was run: as §1

[52] = molecular target: Neu5Gc(b2-6)Gal(b1-4)GlcNAc
How it was run: as §1

B1: MFG-E8 (Mus musculus), P21956 (protein)
chain: MQVSRVLAALCGMLLCASGLFAASGDFCDSSLCLNGGTCLTGQDNDIYCLCPEGFTGLVCNETERGPCSPNPCYNDAKCLVTLDTQRGDIFTEYICQCPVGYSGIHCETETNYYNLDGEYMFTTAVPNTAVPTPAPTPDLSNNLASRCSTQLGMEGGAIADSQISASSVYMGFMGLQRWGPELARLYRTGIVNAWTASNYDSKPWIQVNLLRKMRVSGVMTQGASRAGRAEYLKTFKVAYSLDGRKFEFIQDESGGDKEFLGNLDNNSLKVNMFNPTLEAQYIKLYPVSCHRGCTLRFELLGCELHGCSEPLGLKNNTIPDSQMSASSSYKTWNLRAFGWYPHLGRLDNQGKINAWTAQSNSAKEWLQVDLGTQRQVTGIITQGARDFGHIQYVASYKVAHSDDGVQWTVYEEQGSSKVFQGNLDNNSHKKNIFEKPFMARYVRVLPVSWHNRITLRLELLGC
glycan array binding signal (z-score) [1]: -0.618
glycan array binding signal (z-score) [2]: -0.719
glycan array binding signal (z-score) [3]: 0.477
glycan array binding signal (z-score) [4]: 0.017
glycan array binding signal (z-score) [5]: -0.095
glycan array binding signal (z-score) [6]: -0.262
glycan array binding signal (z-score) [7]: 0.935
glycan array binding signal (z-score) [8]: -0.22
glycan array binding signal (z-score) [9]: -0.21
glycan array binding signal (z-score) [10]: -0.79
glycan array binding signal (z-score) [11]: 1.52
glycan array binding signal (z-score) [12]: 0.032
glycan array binding signal (z-score) [13]: -0.26
glycan array binding signal (z-score) [14]: -0.004
glycan array binding signal (z-score) [15]: -0.437
glycan array binding signal (z-score) [16]: 0.075
glycan array binding signal (z-score) [17]: -0.731
glycan array binding signal (z-score) [18]: -0.148
glycan array binding signal (z-score) [19]: 0.559
glycan array binding signal (z-score) [20]: 0.04
glycan array binding signal (z-score) [21]: 0.831
glycan array binding signal (z-score) (Neu5Ac(a2-6)GalNAc): -0.41
glycan array binding signal (z-score) [22]: -0.569
glycan array binding signal (z-score) [23]: 3.05
glycan array binding signal (z-score) [24]: 0.379
glycan array binding signal (z-score) [25]: 0.019
glycan array binding signal (z-score) (Neu5Ac(a2-8)Neu5Ac): -0.28
glycan array binding signal (z-score) [26]: 1.23
glycan array binding signal (z-score) [27]: 0.158
glycan array binding signal (z-score) [28]: -0.207
glycan array binding signal (z-score) [29]: 1.01
glycan array binding signal (z-score) [30]: -0.56
glycan array binding signal (z-score) [31]: -0.345
glycan array binding signal (z-score) [32]: -0.106
glycan array binding signal (z-score) [33]: -0.889
glycan array binding signal (z-score) [34]: 0.002
glycan array binding signal (z-score) [35]: -0.723
glycan array binding signal (z-score) [36]: -0.112
glycan array binding signal (z-score) [37]: 0.47
glycan array binding signal (z-score) [38]: -0.51
glycan array binding signal (z-score) (Neu5Ac(b2-6)GalNAc): -0.574
glycan array binding signal (z-score) [39]: -0.274
glycan array binding signal (z-score) [40]: 0.267
glycan array binding signal (z-score) [41]: -0.32
glycan array binding signal (z-score) [42]: -1.52
glycan array binding signal (z-score) [43]: 2.55
glycan array binding signal (z-score) (Neu5Gc(a2-3)Gal(b1-4)Glc): 0.553
glycan array binding signal (z-score) [44]: 0.385
glycan array binding signal (z-score) [45]: -0.31
glycan array binding signal (z-score) [46]: -0.007
glycan array binding signal (z-score) [47]: -0.656
glycan array binding signal (z-score) (Neu5Gc(a2-6)GalNAc): -0.178
glycan array binding signal (z-score) [48]: -0.241
glycan array binding signal (z-score) [49]: -0.746
glycan array binding signal (z-score) [50]: 0.073
glycan array binding signal (z-score) [51]: -0.576
glycan array binding signal (z-score) [52]: -1.06
